Experimental data as given in patent US10809252B2, “Time-resolved fluorescent immunochromatographic assay rapid test kit for type I pyrethroid” (priority 2017, dated 2020).

Each molecule was assayed on universal monoclonal antibody against type I pyrethroid (hybridoma cell line QW8#) (assay: conventional indirect competitive ELISA).
Format: binding, mouse
Source text: To screen the target positive hybridoma cell line that is a highly specific and sensitive cell line against pyrethroid containing a diphenyl ether structure (by screening with etofenprox standard), the traditional two-step screening method was modified in this experiment. A gradient screening method was used in the indirect competitive ELISA screening process. (1) In the first step, an indirect non-competitive ELISA was used to screen the positive wells that recognized the diphenyl ether structure, but not the carrier protein (BSA). (2) In the second step, gradient screening was adopted for the indirect competitive ELISA; and the detection after the first subcloning was carried out by using 5 μg/mL etofenprox standard, the detection after the second subcloning was carried out by using 2 μg/mL etofenprox standard, and the detection after the third subcloning was carried out by using 1 μg/mL etofenprox standard. The positive wells with relatively small B/B0 were selected, where B is the absorbance in the control well […] etofenprox standard, and B0 is the absorbance in the wells with etofenprox standard. The cells were cloned by limiting dilution, and detected about 10 days after the cloning by using the same two-step method as described above. After repeated cloning for 2-3 times, the hybridoma cell line QW8# was obtained.
The affinity for QW8# was determined by indirect non-competitive ELISA. The plate was coated at 37° C. for 2 hours with Hapten-1-BSA at concentrations of 2.0, 1.0, 0.5, and 0.25 μg/mL in an amount of 100 μL/well. After the plate was blocked with a blocking solution for 1 hour, the antibody diluted with PBS (at a dilution factor of 1:2) was added to the plate and the rest steps were the same as those in indirect non-competitive ELISA. The OD450 values measured was used as the vertical coordinates, the values of the logarithm of the antibody concentrations (mol/L) were used as the horizontal coordinates, 4 S-shaped curves corresponding to the 4 concentrations were plotted. […]

**Q.** With CCOc1ccc(C(C)(C)COCc2cccc(Oc3ccccc3)c2)cc1 [etofenprox] as the molecule, how does the minimum detectable limit read?
**A.** 3.16 µg/L

**Q.** How did the minimum detectable limit turn out when CC1(C)C(C=C(Cl)Cl)C1C(=O)OCc1cccc(Oc2ccccc2)c1 (stereo not drawn) [permethrin] was run?
**A.** 3.72 µg/L

**Q.** CC(C)=CC1C(C(=O)OCc2cccc(Oc3ccccc3)c2)C1(C)C (stereo not drawn) [phenothrin] was tested. Which minimum detectable limit did it give?
**A.** 4.27 µg/L
